Source: patent US20100021390A1, “Fluorescent Analogs Of The Islet Amyloid Polypeptide” (The Research Foundation of State University of New York, priority 2008, published 2010)
Residue numbers refer to the chain shown, from its start. At least one structure is not confirmed: it was looked up by name or label, or the drawing left a doubt.

By UniProt entry, the sequences of proteins in these tests, tags left out. Residues count along the entry.
UniProt P05067, 672-711 limits assumed: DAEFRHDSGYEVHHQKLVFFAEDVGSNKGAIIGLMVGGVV

Experiments:
IAPP [1] = molecular target: T1, IAPP (Homo sapiens, UniProt P10997); experiment: Thioflavin-T fluorescence monitored assay of IAPP fibril formation with or without rifampicin; format: biochemical
T1 construct: hIAPP is 37 residues in length, contains a disulfide bond linking residues 2 and 7 and has an amidated C-terminus; made in house; host or cells: chemical synthesis (Fmoc solid phase, Applied Biosystems 433A)
T1 sequence (P10997 34-70 limits assumed): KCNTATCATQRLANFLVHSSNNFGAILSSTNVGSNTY

IAPP [2] = molecular target: T1, IAPP; experiment: TEM of IAPP fibrillization reaction samples with or without rifampicin; format: biochemical
hIAPP-Y37FC≡N = molecular target: T2, hIAPP-Y37FC≡N (Homo sapiens, UniProt P10997); experiment: p-Cyanophenylalanine fluorescence-detected kinetics of hIAPP-Y37FC≡N amyloid formation in presence and absence of rifampicin; format: biochemical; settings: 15 μM rifampicin, 32 μM peptide
T2 construct: hIAPP is 37 residues in length, contains a disulfide bond linking residues 2 and 7 and has an amidated C-terminus; made in house; host or cells: chemical synthesis (Fmoc solid phase; Fmoc-4-cyanoPhe from NovaBiochem)
T2 sequence (P10997 with tags, fused parts or gaps): T1 sequence (P10997 34-70 limits assumed) with Y37X
Description: Thioflavin-T Fluorescence. All fluorescence experiments were performed with a Jobin Yvon Horiba fluorescence spectrophotometer or with an Applied Phototechnology Fluorescence Spectrophotometer. An excitation wavelength of 450 nm and emission wavelength of 485 nm was used for the thioflavin-T studies. The excitation and emission slits were set at 5 nm. A 1.0 cm cuvette was used and each point was averaged for 1 minute. All solutions for these studies were prepared by diluting filtered stock solution (0.45 μm filter) into a Tris-HCl buffer (pH 7.4) and thioflavin-T solution immediately before the measurement. The final concentration was 32 μM peptide and 25 μM thioflavin-T with or without rifampicin in 2% HFIP for all experiments. The final concentration of ascorbic acid used in antioxidant experiments was 83 μM. All solutions were stirred during the fluorescence experiments. P-cyanophenylalanine fluorescence was excited at 240 nm and detected at 296 nm, with both excitation and emission slits of 10 nm.

[3] = Stability of rifampicin in buffer by UV-Vis absorbance at 483 nm; format: physicochemical
Aβ1-40 = molecular target: T3, Aβ1-40 (Homo sapiens, UniProt P05067); settings: in vitro, Tomiyama et al. 1994; cited from earlier work
T3 construct: fibril formation by Aβ1-40

rat PCL2 cells = settings: Tomiyama et al. 1994; cited from earlier work
a-synuclein = a-synuclein (Homo sapiens, UniProt P37840); settings: Li et al. 2004; cited from earlier work
[4] = rifampicin incubated in aqueous solution for 35 days, 15 μM

In the case of `CO[C@H]1/C=C/O[C@@]2(C)Oc3c(C)c(O)c4c(O)c(c(/C=N/N5CCN(C)CC5)c(O)c4c3C2=O)NC(=O)/C(C)=C\C=C\[C@H](C)[C@H](O)[C@@H](C)[C@@H](O)[C@@H](C)[C@H](OC(C)=O)[C@@H]1C` [rifampicin], the “thioflavin-T fluorescence over time course, rifampicin present at start” value (IAPP [1]; 15 μM rifampicin, 32 μM IAPP, 25 μM thioflavin-T, 2% HFIP, pH 7.4, no antioxidant) is reported as “No significant change in thioflavin-T fluorescence”, the “thioflavin-T fluorescence over time course, rifampicin present at start, with antioxidant” value (IAPP [1]; 15 μM rifampicin, 32 μM IAPP, 83 μM ascorbic acid) is reported as “no significant change in the thioflavin-T fluorescence” and the “thioflavin-T fluorescence after addition to preformed fibrils, with antioxidant” value (IAPP [1]; ascorbic acid present) is reported as “eliminated the thioflavin-T fluorescence”. For the same compound, the “thioflavin-T fluorescence after addition to preformed fibrils” value (IAPP [1]; rifampicin added in plateau region, 32 μM IAPP, no antioxidant) was “rapid loss of thioflavin-T fluorescence”, the “thioflavin-T fluorescence experiment, oxidized rifampicin” value (IAPP [1]; [4]) was “did interfere with thioflavin-T fluorescence” and the “amyloid formation by TEM, rifampicin present at start” value (IAPP [2]; 15 μM rifampicin, 32 μM IAPP, 100 minutes, no antioxidant) was “did not prevent amyloid formation”. For the same compound, the “amyloid formation by TEM, rifampicin present at start, with antioxidant” value (IAPP [2]; 83 μM ascorbic acid, after 100 minutes) was “abundant amyloid fibrils”, the “disaggregation of preformed fibrils by TEM” value (IAPP [2]; 35 minutes after addition of drug, no antioxidant) was “does not disaggregate IAPP fibrils” and the “dissociation of preformed fibrils by TEM, with antioxidant” value (IAPP [2]; ascorbic acid present) was “did not dissociate fibrils”. The “amyloid formation, oxidized rifampicin” value (IAPP [2]; [4]) was “failed to prevent amyloid formation”, the “growth phase (10% to 80% completion) in the presence of the drug” value (hIAPP-Y37FC≡N) was 7 min and the “t50 time (time to reach 50% of maximum fluorescence intensity) when rifampicin is present” value (hIAPP-Y37FC≡N; 2% HFIP, 25° C., pH 7.4) was 19 min. The “change in absorbance at 483 nm” value ([3]; in the absence of ascorbic acid, aqueous buffer) was “steady decrease”, the “time with no significant change in absorbance at 483 nm” value ([3]; in the presence of ascorbic acid) was “at least 1000 minutes” and the “fibril formation by Aβ1-40” value (Aβ1-40) was “inhibit fibril formation”. For the same compound, the “toxicity of Aβ1-40 to cultured rat PCL2 cells” value (rat PCL2 cells) was “reduced its toxicity” and the fibrillization of a-synuclein (a-synuclein) was “inhibits fibrillzation”.
